# Primary screen of a compound library

Mtb cholesterol medium: 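Whole-cell growth test on Mycobacterium tuberculosis, read after 4 days in a medium based on cholesterol and the lipid DPPC; the read-out is not stated. Compounds at 50 µM. Direction is inferred from retests: higher values go with more growth inhibition. About 69,000 compounds were tested under these conditions; 0.54% (about 370) showed 50% or more at least once.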
Mtb glucose medium: 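Phenotypic screen: M. tuberculosis growth, glucose 7H9 medium, 3 days; the read-out is not stated. Concentration: 50 µM. Direction is inferred from retests: higher values go with more growth inhibition. About 69,000 compounds were tested under these conditions; 1.1% (about 760) showed 50% or more at least once.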

The filed quantity is “Percent Effect” (%). The controls that fix the scale are not given in the record; negative values are as filed. This is an unselected part of the compounds tested. Two or more numbers in one place are separate tests of the same structure; such repeats can differ widely.

CN(CCCSc1ccccc1)C(=O)Cn1ncc(N(C)C)cc1=O gave Mtb cholesterol medium: 13.4%; Mtb glucose medium: 6.614%. With COc1ccc(F)cc1C(C)NC(=O)Nc1nnc(C)s1 (stereo unspecified) the screen gave Mtb cholesterol medium: -7.177%; Mtb glucose medium: 14.29%. [H][C@@]12C[C@H](C(=O)N3CCCC3)[C@@]([H])(CN(C(=O)NCC3CCCCC3)C1)O2 gave Mtb cholesterol medium: 15.17%; Mtb glucose medium: -6.365% and -13.03%. For O=C(CSCC1CC1)N1CCCC(c2nccn2Cc2cccnc2)C1 (stereo unspecified) the result was Mtb cholesterol medium: 11.95% and -5.175%; Mtb glucose medium: 35.3%. Result for O=C(c1cnccn1)N1CCN(c2ccnc3ccsc23)CC1 was Mtb cholesterol medium: 6.48% and 6.797%; Mtb glucose medium: 1.446%. [H][C@@]12OCCN(C(=O)CC3=CCCCC3)[C@@]1([H])CC[C@@H]2OC gave Mtb cholesterol medium: -12.52%; Mtb glucose medium: 16.17%.

For N#CC1CCN(C(=O)CN2CC(c3ccccc3)CC2=O)CC1 (stereo unspecified) the result was Mtb cholesterol medium: -2.802%; Mtb glucose medium: -5.732%. For Cc1nonc1CN(C)Cc1c[nH]nc1-c1ccc(F)cc1F the result was Mtb cholesterol medium: -0.6705%; Mtb glucose medium: 29.74%. With O=C(O)C(F)(F)F.[H][C@@]12CCN(CC3CC3)[C@@]1([H])CCN2S(=O)(=O)c1cccs1 the screen gave Mtb cholesterol medium: 16.29%; Mtb glucose medium: -14.43%. With CCN1CCCC1CNCc1cc2cc(C)c(C)cc2[nH]c1=O (stereo unspecified) the screen gave Mtb cholesterol medium: 14.88%; Mtb glucose medium: 16.98%. O=C(O)C(F)(F)F.[H][C@@]12CN(C(=O)Cc3ccccn3)C[C@]1([H])[C@@H]2CC(=O)NC(C)C read Mtb cholesterol medium: -14.79%; Mtb glucose medium: 19.63%. COCCN1C[C@@H](C)[C@@]2(COCCN(C(=O)c3ccncc3)C2)C1.O=C(O)C(F)(F)F.O=C(O)C(F)(F)F gave Mtb cholesterol medium: 7.804%; Mtb glucose medium: 24.6% and 11.24%.

With O=C(O)C(F)(F)F.O=C(O)C(F)(F)F.[H][C@@]12CCN(Cc3ccc(C)o3)C[C@]1([H])[C@@H](CN1CCCC1)OC2 the screen gave Mtb cholesterol medium: -1.103%; Mtb glucose medium: 11.91%. N#CCCN(Cc1cccnc1)C(=O)c1ccn(-c2ccccc2)n1 read Mtb cholesterol medium: -6.581%; Mtb glucose medium: 10.75%. CCN(Cc1ccc(C)o1)C(=O)C(C)n1ccnc1C(C)C (stereo unspecified) gave Mtb cholesterol medium: -18.22%; Mtb glucose medium: -21.36% and -3.812%. For O=C(CC1COCCN1)N1CCCN(C2Cc3ccccc3C2)CC1 (stereo unspecified) the result was Mtb cholesterol medium: -4.565%; Mtb glucose medium: 15.25%. With COCCc1noc(CN2CCCC2c2c(C)nn(C)c2OC)n1 (stereo unspecified) the screen gave Mtb cholesterol medium: -5.922%; Mtb glucose medium: -10.47%. Result for CNC(=O)CCNC(=O)c1cc(Br)c2c(c1)OCCO2 was Mtb cholesterol medium: 6.565%; Mtb glucose medium: -5.117%.

Cc1nc(CN2CCCN(C(=O)C(C)OCC3CC3)CC2)cs1 (stereo unspecified) gave Mtb cholesterol medium: -2.909%; Mtb glucose medium: -2.386%. With Cn1nccc1CNC(=O)CCn1nc(C(F)(F)F)cc1C1CC1 the screen gave Mtb cholesterol medium: 4.285%; Mtb glucose medium: 15.57%. For CC(=O)CN1CC2(CCNCC2)COc2ccccc2S1(=O)=O.O=C(O)C(F)(F)F the result was Mtb cholesterol medium: -3.267%; Mtb glucose medium: -4.73%. For Cc1occc1C(=O)N1CCC(C(O)c2ccc(Cl)cc2)CC1 (stereo unspecified) the result was Mtb cholesterol medium: -9.486%; Mtb glucose medium: -1.811%. Result for CCn1cc(CN2CCN(C(=O)N3CCOCC3)CC2)cn1 was Mtb cholesterol medium: -35.44%; Mtb glucose medium: -8.773% and -35.46%.

Source: ChEMBL document CHEMBL3988442, “University of Dundee, Small-Polar-MMV Screening Library” (2021).